For two substances, binding results are on record in publication PMC9219861.

The chains behind the UniProt entries cited, without tags or fusion partners.
UniProt O96017: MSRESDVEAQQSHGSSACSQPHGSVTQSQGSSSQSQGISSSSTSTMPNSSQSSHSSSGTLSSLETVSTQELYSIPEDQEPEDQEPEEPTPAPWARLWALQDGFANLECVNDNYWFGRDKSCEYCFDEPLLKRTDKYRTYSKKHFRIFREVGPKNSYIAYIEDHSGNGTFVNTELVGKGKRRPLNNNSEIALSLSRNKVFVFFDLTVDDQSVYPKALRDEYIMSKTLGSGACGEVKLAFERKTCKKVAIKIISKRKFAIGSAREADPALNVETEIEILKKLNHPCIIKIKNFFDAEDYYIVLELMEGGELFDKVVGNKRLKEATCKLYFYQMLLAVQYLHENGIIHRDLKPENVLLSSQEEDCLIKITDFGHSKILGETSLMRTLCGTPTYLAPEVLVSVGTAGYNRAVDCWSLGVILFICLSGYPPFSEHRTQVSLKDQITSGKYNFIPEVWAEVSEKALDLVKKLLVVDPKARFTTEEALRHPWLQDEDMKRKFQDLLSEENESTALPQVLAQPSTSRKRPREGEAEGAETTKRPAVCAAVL

One assay concerns the target T1, GST-ULK1 (UniProt O75385).
T1 sequence: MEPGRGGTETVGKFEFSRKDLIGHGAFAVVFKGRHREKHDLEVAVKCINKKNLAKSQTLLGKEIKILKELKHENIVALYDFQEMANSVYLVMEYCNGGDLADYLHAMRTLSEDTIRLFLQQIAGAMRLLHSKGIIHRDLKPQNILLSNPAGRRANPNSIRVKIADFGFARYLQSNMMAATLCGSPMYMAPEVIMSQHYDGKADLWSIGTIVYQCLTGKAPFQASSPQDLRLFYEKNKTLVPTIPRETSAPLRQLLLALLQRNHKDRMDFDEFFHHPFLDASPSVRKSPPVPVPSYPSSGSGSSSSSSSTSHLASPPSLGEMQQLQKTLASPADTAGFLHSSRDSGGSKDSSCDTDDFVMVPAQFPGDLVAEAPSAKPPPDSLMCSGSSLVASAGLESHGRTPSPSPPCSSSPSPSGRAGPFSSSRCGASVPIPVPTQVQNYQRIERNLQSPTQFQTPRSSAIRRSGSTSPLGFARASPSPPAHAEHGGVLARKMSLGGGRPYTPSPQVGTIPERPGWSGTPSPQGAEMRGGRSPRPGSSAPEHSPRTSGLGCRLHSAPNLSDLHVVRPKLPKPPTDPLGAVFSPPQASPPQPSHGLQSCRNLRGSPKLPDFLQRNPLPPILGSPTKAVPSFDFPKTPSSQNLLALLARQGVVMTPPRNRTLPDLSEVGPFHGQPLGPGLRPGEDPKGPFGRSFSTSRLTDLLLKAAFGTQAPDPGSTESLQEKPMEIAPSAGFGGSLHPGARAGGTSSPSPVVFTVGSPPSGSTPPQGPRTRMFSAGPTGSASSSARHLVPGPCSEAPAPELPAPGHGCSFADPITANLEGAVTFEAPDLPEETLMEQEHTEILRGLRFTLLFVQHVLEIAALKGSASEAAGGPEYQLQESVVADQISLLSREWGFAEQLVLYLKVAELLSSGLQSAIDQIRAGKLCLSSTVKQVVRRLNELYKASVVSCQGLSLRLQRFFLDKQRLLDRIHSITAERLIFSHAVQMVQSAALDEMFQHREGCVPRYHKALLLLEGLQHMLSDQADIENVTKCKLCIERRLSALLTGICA
Put plainly: pull-down; purified GST or GST-ULK1 incubated with in vitro-translated FLAG-tagged CHK2; Western blot; only the target purified.

Assay [1] deals with T2, Serine/threonine-protein kinase ULK1, endogenous (human (endogenous in HCT116)) (UniProt O75385).
T2 sequence: T1 sequence
Put plainly: co-IP; endogenous proteins in HCT116 lysates; immunoprecipitated with ULK1 antibody or CHK2 antibody (rabbit IgG as control) on protein A/G beads, overnight 4 °C, Western blot; cells untreated or treated with EBSS, H2O2 (500 μM), NAC (2 mM) then EBSS, CHK2 inhibitor (20 μM) then EBSS.

These are yes or no findings as the source states them, for the method shown. Binding seen in cells or lysates may run through a third protein. Some binding calls cover weakened binding; strength is not graded here. For some assays here: Sequences can lack the tags named with a protein.

Turning to “FLAG-tagged CHK2, in vitro translated (from UniProt O96017 1-543)”, the binding entry with GST-ULK1 is listed as “binds”.
Regarding “Cell cycle checkpoint kinase 2 (CHK2), endogenous (from UniProt O96017 1-543)”, the binding result in assay [1] is recorded as “binds”.
